Results taken from patent US12503451B2, “2-arylthiazole derivative or salt thereof, preparation method therefor, and pharmaceutical composition comprising same” (HEXAPHARMATEC CO., LTD., priority 2020, dated 2025).
Where a name gives a salt, the structure may show the parent alone. At least one read-out could not be matched to a standard name with certainty.

System: Hela cells
Experiment: Autophagy-inducing activities (DAPGreen Autophagy Detection Kit)
Format: cell-based
Settings: relative to rapamycin = 1

SMILES | Relative fluorescence value (incubation for 4 hours) (500 nM) | Relative fluorescence value (incubation for 4 hours) (1000 nM)
CCN(CC)CCCNC(=O)c1sc(-c2ccc(OCC(C)C)c(C#N)c2)nc1C [Example 4, N-(3-(diethylamino)propyl)-2-(3-cyano-4-isobutoxyphenyl)-4-methylthiazole-5-carboxamide hydrochloride] | 0.975 | 0.941
Cc1nc(-c2ccc(O)c(C#N)c2)sc1C(=O)NCCN(C(C)C)C(C)C [Example 18, N-(2-(diisopropylamino)ethyl)-2-(3-cyano-4-hydroxyphenyl)-4-methylthiazole-5-carboxamide hydrochloride] | 0.838 | 0.731
